Results on one compound are retold here after patent US20150126603A1, “TREATMENT OF POULTRY, PIGS OR FISH FOR REDUCING THE FEED CONVERSION RATIO OR INCREASING THEIR BODYWEIGHT GAIN” (TAMINCO, priority 2012, published 2015).

One series relates to Ross 308 chickens. The conditions noted are these: for Anserine / HCD (Histidine Containing Dipeptides) / Taurine / Carnosine: 500 mg/kg beta-alanine in diet; for Carnosine: 42 days of age.
A further series has as its system chickens. The conditions noted are these: 22 mmol/kg bodyweight orally twice a day for five days; cited from earlier work.

Like-named read-outs stand apart in the source and are kept apart here.

As to `NCCC(=O)O` [Beta-alanine, β-alanine], the “effect on the muscular concentrations of carnosine, anserine and taurine” value with Ross 308 chickens (500 mg/kg β-alanine in diet) is recorded as “substantially no effect”. Also, in the series on Ross 308 chickens (breast muscle), the Anserine was 36.9 mmol/kg, the “HCD (Histidine Containing Dipeptides)” value worked out at 44.8 mmol/kg, the Taurine came out at 2.2 mmol/kg and the Carnosine is reported as 7.9 mmol/kg. Further, in the series on Ross 308 chickens (thigh muscle), the Anserine was 12.6 mmol/kg, the “HCD (Histidine Containing Dipeptides)” value stood at 17.4 mmol/kg, the Taurine was 5.6 mmol/kg and the Carnosine was 4.8 mmol/kg. In the series on chickens, the anserine level result is on record as “decreased”; the “carnosine concentrations in breast muscle and brains” value was “increases”; the “dipeptide (carnosine and anserine) level” value was “no significant increase”; the “reduction of taurine concentration in the breast muscles” value is “more than 50%”.
